Assay: general procedure: Fmoc solid-phase peptide synthesis; Fmoc-Rink Amide AM Resin, substitution 0.35 mmol/g
Settings: whole synthesis
[1] = scale of the general procedure 230 grams of resin, run 1
[2] = scale of the general procedure 230 grams of resin, run 2

setmelanotide
crude purity (method not given) (scale 1 mmol): 86.9%
crude purity (method not given) [1]: greater than 85%
crude yield [1]: about 20%
crude purity (method not given) [2]: greater than 80%
crude yield [2]: 37-41%
crude purity (method not given) (scale of the general procedure 230 grams of resin, run 3): 64%
crude purity (method not given) (scale of the general procedure 230 grams of resin, run 4): greater than 80%
crude purity (method not given) (scale of the general procedure 230 grams of resin, run 5): greater than 85%
crude purity (method not given) (scale of the general procedure 230 grams of resin, run 6): 78%
